Assay results as given in publication PMC5095148.
Results are given in words; binding and its absence hold for the method and conditions named. In cells and extracts the contact can be indirect. Some binding calls cover weakened binding; strength is not graded here. For some of these results: Where a sequence is shown, tags or fusion partners need not be part of it.

By UniProt entry, the sequences of proteins in these tests, tags left out.
UniProt Q9H9Q2: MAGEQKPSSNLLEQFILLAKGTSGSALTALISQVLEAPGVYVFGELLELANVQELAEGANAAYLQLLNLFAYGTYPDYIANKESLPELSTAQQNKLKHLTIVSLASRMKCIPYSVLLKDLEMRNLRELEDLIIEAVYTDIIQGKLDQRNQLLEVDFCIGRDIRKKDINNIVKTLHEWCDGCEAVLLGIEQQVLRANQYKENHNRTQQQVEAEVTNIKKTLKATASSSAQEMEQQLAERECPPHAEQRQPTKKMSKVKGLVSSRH
UniProt Q99627: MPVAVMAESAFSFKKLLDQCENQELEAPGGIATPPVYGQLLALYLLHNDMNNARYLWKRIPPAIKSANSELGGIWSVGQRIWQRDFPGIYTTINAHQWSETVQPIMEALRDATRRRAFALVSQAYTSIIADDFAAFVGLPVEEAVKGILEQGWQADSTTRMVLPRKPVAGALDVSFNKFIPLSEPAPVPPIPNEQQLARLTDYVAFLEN

These substances were tested against Flag‐CSN7A (human) (UniProt Q9UBW8) (assay: pull-down; Flag‐pulldown: lysates of Flag‐CSN7A‐LiSa‐2 or Flag‐CSN7B‐LiSa‐2 cells on an ANTI‐FLAG M2 affinity column, washed with 20 column volumes of 1× TBS (50 mM Tris‐HCl, pH 7.4, 150 mM NaCl, 1 mM EDTA), eluted with Flag peptide (100 μg/mL); western blotting of the eluate).

**Q.** For “CSN7B (COP9 signalosome subunit 7B), endogenous (from UniProt Q9H9Q2 1-264)”, which binding is on record?
**A.** Its binding is “no binding”.

The substances below were run against Flag‐CSN7B (human) (UniProt Q9H9Q2) in the same assay as above.

**Q.** With CSN3 (from UniProt Q9UNS2 1-423) as the substance, how does the binding read?
**A.** The binding was “binds”.

**Q.** With CSN2 (from UniProt P61201 1-443) as the substance, how does the binding read?
**A.** The binding was “binds”.

**Q.** How did the binding turn out when CSN6 (from UniProt Q7L5N1 1-327) was run?
**A.** The binding was “binds”.

**Q.** Which binding does the source give for CSN8 (from UniProt Q99627 1-209) here?
**A.** Its binding is “binds”.

**Q.** With CSN4 (from UniProt Q9BT78 1-406) as the substance, how does the binding read?
**A.** Its binding is “binds”.

**Q.** CSN5 (from UniProt Q92905 1-334) was tested. Which binding did it give?
**A.** Its binding is “binds”.
